Some of the results follow. Shown are side measurements of this screen, not its main read-out; they come without a call. The list favours compounds with an active or inconclusive main result. Words in brackets tell the shape of the fitted curve; partial curves, single points and poor fits give uncertain potencies.
Assay: qHTS Assay for Lipid Storage Modulators in Drosophila S3 Cells;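 for cell number change: cells counted by Cell Tracker Red CMTPX staining in the red channel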
Conditions: BODIPY lipid droplet fluorescence, 18-24 h; for cell number change: measured here: cell count max response, cells fed with added oleic acid
Method in brief: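 Drosophila S3 cells got compounds at several concentrations plus oleic acid (400 uM solution). Laser-scanning cytometry with 488 nm excitation read lipid droplets at 500-530 nm and cells at 575-640 nm. Percent activity was relative to 20 uM Triacsin C.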

[1] = measured here: lipid fluorescence (Fed channel) AC50, cells fed with added oleic acid
[2] = measured here: cell number channel AC50, cells fed with added oleic acid

With `Cc1cc(C)n(-c2nc3c(c(=O)[nH]c(=O)n3C)n2C(C)C)n1` the cell number change was -4.27% and the AC50 [1] was 7.31 µM [rising, single point].
For `O=C(/C=C/c1cccc([N+](=O)[O-])c1)Nc1cccc(NC(=O)c2cccs2)c1`, the AC50 [1] was 1.84 µM [rising, partial curve].
For `COc1ccc(-c2csc(NC(=O)CSc3nc(SC)ns3)n2)cc1`, the cell number change was -60.1%, the AC50 [2] was 18.4 µM [falling, single point] and the AC50 [1] was 29.1 µM [falling, single point].
With `Cc1cc(C)nc(-n2nc(C)c(Oc3ccccc3O)c2C)n1` the cell number change was -26.3% and the AC50 [1] was 9.2 µM [falling, partial curve, poor fit].
In the case of `CN1CCN(CCCNC(=O)Cn2nc(-c3ccccc3)ccc2=O)CC1`, the cell number change is reported as -9.77% and the AC50 [1] is reported as 0.13 µM [falling, full curve, poor fit].
For `COc1ccc(CC(=O)NNC(=O)c2nn(Cc3ccccc3)c(=O)c3ccccc23)cc1OC`, the cell number change was -49%, the AC50 [2] was 29.1 µM [falling, single point] and the AC50 [1] was 29.1 µM [falling, single point].
In the case of `O=C(Cn1cnc2ccccc21)OCC(=O)N1CCCc2ccccc21`, the cell number change is reported as -6.71% and the AC50 [1] is reported as 0.116 µM [falling, full curve, poor fit].
In the case of `NNC(=O)c1cc2c(ccc3ccccc32)o1`, the AC50 [2] is reported as 6.51 µM [falling, single point].
With `COc1cc(OC)cc(C(=O)Nc2ccc3c(c2)n(C)c(=O)n3C)c1` the cell number change was 2.49%.
Compound `CN1CCN(S(=O)(=O)c2ccc(-c3ccc(S(=O)(=O)N4CCN(C)CC4)cc3)cc2)CC1` has a cell number change of 0.133%.
In the case of `ClCc1c2ccccc2cc2ccccc12`, the cell number change is reported as 14.9% and the AC50 [1] is reported as 3.66 µM [rising, partial curve].
With `Cc1noc(C)c1CSc1nnc(-c2ccccc2)n1Cc1ccco1` the cell number change was -11.7%.
`CC(C)C(=O)Nc1nnc(S(=O)(=O)N2c3ccccc3CC2C)s1` (stereo unspecified) showed a cell number change of 3.29%.
For `O=C(Cc1ccccc1)Nc1cccc(N2C(=O)C=CC2=O)c1`, the cell number change was -96%, the AC50 [2] was 2.06 µM [falling, partial curve] and the AC50 [1] was 29.1 µM [falling, single point].
For `COc1ccc(C2C(C(C)=O)=C(O)C(=O)N2c2ccc(O)cc2)cc1` (stereo unspecified), the cell number change was 11.8% and the AC50 [1] was 0.651 µM [falling, partial curve, poor fit].
In the case of `COc1ccc(/C(N)=N/OC(=O)c2cc(-c3ccccc3)nc3ccccc23)cc1`, the cell number change is reported as 22.2% and the AC50 [1] is reported as 4.61 µM [rising, partial curve, poor fit].
With `COc1ccc(OC)c(C2=Nn3c(nnc3C3CCCCC3)SC2)c1` the cell number change was -8.45% and the AC50 [1] was 1.03 µM [rising, single point].
For `O=C(NCc1cccc(Cl)c1)c1ccc2c(c1)OCO2`, the cell number change was 47.9%, the AC50 [2] was 0.92 µM [rising, full curve] and the AC50 [1] was 6.51 µM [rising, single point].
For `CCOc1cc2[nH]c(=S)n(Cc3ccc(C(=O)NCC(OC)OC)cc3)c(=O)c2cc1OCC`, the cell number change was 23.4% and the AC50 [1] was 1.46 µM [rising, full curve].
In the case of `Cc1cccc(N(C(=O)Cn2nnc3ccccc32)C(C(=O)NCc2ccco2)c2ccncc2)c1C` (stereo unspecified), the cell number change is reported as 32.8% and the AC50 [2] is reported as 32.6 µM [rising, single point].
In the case of `Cc1ccc(S(=O)(=O)N2CCOCC2)cc1NC(=O)c1cc2c(s1)CCC2`, the cell number change is reported as 93.7%, the AC50 [2] is reported as 16.4 µM [rising, single point] and the AC50 [1] is reported as 18.4 µM [rising, partial curve].
Compound `CCN(CC)S(=O)(=O)c1ccc(C(=O)Nc2cc(C)on2)cc1` has a cell number change of 2.78%.
With `COCCNC(=O)C1CCN(S(=O)(=O)N2CCC3(CC2)OCCO3)CC1` the cell number change was -29% and the AC50 [1] was 29.1 µM [falling, single point].
For `COCC(=O)Nc1cc(C(=O)Nc2ccccc2C)ccc1Cl`, the cell number change was 44.8%, the AC50 [2] was 6.51 µM [rising, partial curve] and the AC50 [1] was 3.26 µM [rising, partial curve].
With `Cc1cc(Nc2c(C)cccc2C)n2nc(C)nc2n1` the cell number change was 34.3%, the AC50 [2] was 29.1 µM [rising, single point] and the AC50 [1] was 29.1 µM [rising, single point].
With `O=C(NC(=S)Nc1ccc2c(c1)C(=O)c1ccccc1C2=O)c1ccc(F)cc1` the cell number change was 6.24% and the AC50 [1] was 0.164 µM [rising, full curve, poor fit].
For `O=C(/C=C/c1cn(-c2ccccc2)nc1-c1cccc(Cl)c1)N1CCN(c2ccccn2)CC1`, the cell number change was -9.19%, the AC50 [2] was 0.00411 µM [falling, full curve, poor fit] and the AC50 [1] was 6.51 µM [falling, single point].
Compound `O=C(NCCc1nc2ccccc2[nH]1)/C(=C/c1ccc2c(c1)OCO2)NC(=O)c1ccccc1` has a cell number change of -23.9%.
With `Cc1cc(N2CCCCC2)nc2ccc(NC(=O)CCC(=O)NCCC(C)C)cc12` the cell number change was -70.5% and the AC50 [2] was 18.4 µM [falling, single point].
For `CCC1CCCCN1CCCNC(=O)c1cc2c(=O)[nH]c3ccccc3c2n1C` (stereo unspecified), the cell number change was 22.7%.
In the case of `COc1ccc(Nc2ncnc3ccc(C)cc23)cc1`, the cell number change is reported as -22.5% and the AC50 [1] is reported as 6.51 µM [falling, single point].
In the case of `CCN(CC)C(=O)C1CCCN(c2ccc([N+](=O)[O-])cc2/C=N/NC(=O)c2cccc(O)c2)C1` (stereo unspecified), the cell number change is reported as 25.3% and the AC50 [1] is reported as 0.0206 µM [rising, full curve, poor fit].
In the case of `Cc1ccc(SCC(=O)Nc2ccc3c(c2)C(=O)NC3=O)cc1`, the cell number change is reported as 26%, the AC50 [2] is reported as 3.66 µM [rising, single point] and the AC50 [1] is reported as 25.9 µM [rising, single point].
With `CN(C(=O)CNC(=O)c1ccc(Br)o1)C1CCCCC1` the cell number change was 4.14% and the AC50 [1] was 23.1 µM [rising, single point].
For `O=C(CCNC(=O)Cn1ccc2ccccc2c1=O)NCC1CCCC1c1ccccc1` (stereo unspecified), the cell number change was -53.5% and the AC50 [2] was 14.6 µM [falling, single point].
With `CC(C)N(C)C1CCN(C(=O)Nc2ccc(Cl)c(Cl)c2)CC1` the cell number change was 0.0064%.
For `Cc1noc(C)c1S(=O)(=O)Nc1ccc(C(=O)N2CCN(c3ccc(Cl)cc3)CC2)cc1`, the cell number change was -30.2%, the AC50 [2] was 10.3 µM [falling, partial curve] and the AC50 [1] was 0.651 µM [falling, full curve, poor fit].
For `O=C(Nc1ccc(F)cc1)Nn1cnnc1`, the cell number change was -24.8% and the AC50 [2] was 0.58 µM [falling, full curve, poor fit].
For `COc1ccc(CNC(=O)CN(C)S(=O)(=O)c2ccc3c(c2)c(=O)n(C)c(=O)n3C)cc1`, the cell number change was -23.6% and the AC50 [1] was 29.1 µM [falling, partial curve].
For `Cc1ccc(C2=NN=C(NC(=O)CSc3nc(C)cc(C)n3)SC2)cc1`, the cell number change was -41.4%, the AC50 [2] was 14.6 µM [falling, partial curve] and the AC50 [1] was 14.6 µM [falling, single point].
With `Cc1ccccc1CSCC(=O)NNC(=S)NCC1CCCO1` (stereo unspecified) the cell number change was 5.49% and the AC50 [1] was 29.1 µM [rising, single point].
For `CCCc1cc(=O)oc2cc(OC(=O)CN3C(=O)NC4(CCCC4)C3=O)ccc12`, the cell number change was 21.4% and the AC50 [1] was 29.1 µM [rising, single point].
For `O=C(N=Nc1c(O)n(Cc2ccccc2)c2ccccc12)c1cc2ccccc2cc1O`, the cell number change was -35.7% and the AC50 [2] was 5.8 µM [falling, full curve].
In the case of `CCCCNC(=O)CSc1nc2ccc(N3CCOCC3)cc2c(=O)n1Cc1ccc(OC)cc1`, the cell number change is reported as -59.6%, the AC50 [2] is reported as 29.1 µM [falling, single point] and the AC50 [1] is reported as 29.1 µM [falling, single point].
Compound `COc1ccccc1Cc1noc(C(C)(C)NC(=O)c2ccccc2)n1` has a cell number change of 2.06%.
In the case of `COc1ccc(S(=O)(=O)N2CCCC2CNC(=O)C(=O)Nc2cccc(F)c2)cc1` (stereo unspecified), the cell number change is reported as 17.1%.
`CC(NC(=O)c1cc2cc(Br)ccc2oc1=N)c1ccccc1` (stereo unspecified) showed a cell number change of -17.3%.
In the case of `CCOC(=O)N1CCN(C(=O)CN(Cc2ccc(Cl)cc2)S(C)(=O)=O)CC1`, the cell number change is reported as 12.6% and the AC50 [1] is reported as 20.6 µM [rising, partial curve].
For `COc1cccc(CN2CCN(CC#Cc3ccccc3)CC2CCO)c1` (stereo unspecified), the cell number change was 15.4% and the AC50 [1] was 16.4 µM [rising, partial curve].
In the case of `CCOC(=O)C1CCCN(S(=O)(=O)c2c(C)[nH]c(C)c2C(=O)N2CCCC2)C1` (stereo unspecified), the cell number change is reported as -14.7% and the AC50 [1] is reported as 1.46 µM [falling, single point].
With `O=C(O)/C=C/c1coc2ccc(F)cc2c1=O` the cell number change was 10.5% and the AC50 [1] was 6.51 µM [falling, single point].
In the case of `Cn1c(=O)c2c(nc(SCc3cccnc3)n2Cc2ccc(F)cc2)n(C)c1=O`, the cell number change is reported as -31.1%, the AC50 [2] is reported as 0.00517 µM [falling, full curve, poor fit] and the AC50 [1] is reported as 0.00651 µM [falling, full curve, poor fit].
For `COc1ccc(-n2c(=S)[nH]c3cc(C(=O)O)ccc3c2=O)cc1`, the cell number change was 6.91%, the AC50 [2] was 2.31 µM [rising, partial curve, poor fit] and the AC50 [1] was 3.66 µM [rising, partial curve].
With `Cc1ccc(C2=[N+]([O-])C(C)(C)CC2)cc1` the cell number change was -15.1% and the AC50 [1] was 2.06 µM [falling, partial curve, poor fit].
For `O=c1c(Cl)c(N2CCOCC2)cnn1-c1ncc(C(F)(F)F)cc1Cl`, the cell number change was 7.46% and the AC50 [1] was 0.13 µM [falling, full curve, poor fit].
`CCOc1ccc(C(=O)C2CCN(C(=O)c3ccccc3C(=O)O)CC2)cc1` gave a cell number change of 15.9%.
With `Cc1ccn2c(C(=O)CSc3ccccc3)c(C)nc2c1` the cell number change was 23.9%.
With `COc1ccc(C2CC(c3ccccc3)Nc3nc(NC(=O)c4ccco4)nn32)cc1` (stereo unspecified) the cell number change was 14.7% and the AC50 [1] was 0.13 µM [falling, full curve, poor fit].
In the case of `O=C(Nc1nnc(S(=O)(=O)N2CCCCCC2)s1)c1ccc(Cl)cc1`, the cell number change is reported as -15%.

Reference: PubChem BioAssay AID2685 (National Center for Advancing Translational Sciences (NCATS), 2010)
